The list shows a part of the results. Small differences around the control level are noise.

Amino acid sequences for entries named in this document (tags omitted). A change or cut given only in a name is not applied to a line headed by its entry.
UniProt O43511: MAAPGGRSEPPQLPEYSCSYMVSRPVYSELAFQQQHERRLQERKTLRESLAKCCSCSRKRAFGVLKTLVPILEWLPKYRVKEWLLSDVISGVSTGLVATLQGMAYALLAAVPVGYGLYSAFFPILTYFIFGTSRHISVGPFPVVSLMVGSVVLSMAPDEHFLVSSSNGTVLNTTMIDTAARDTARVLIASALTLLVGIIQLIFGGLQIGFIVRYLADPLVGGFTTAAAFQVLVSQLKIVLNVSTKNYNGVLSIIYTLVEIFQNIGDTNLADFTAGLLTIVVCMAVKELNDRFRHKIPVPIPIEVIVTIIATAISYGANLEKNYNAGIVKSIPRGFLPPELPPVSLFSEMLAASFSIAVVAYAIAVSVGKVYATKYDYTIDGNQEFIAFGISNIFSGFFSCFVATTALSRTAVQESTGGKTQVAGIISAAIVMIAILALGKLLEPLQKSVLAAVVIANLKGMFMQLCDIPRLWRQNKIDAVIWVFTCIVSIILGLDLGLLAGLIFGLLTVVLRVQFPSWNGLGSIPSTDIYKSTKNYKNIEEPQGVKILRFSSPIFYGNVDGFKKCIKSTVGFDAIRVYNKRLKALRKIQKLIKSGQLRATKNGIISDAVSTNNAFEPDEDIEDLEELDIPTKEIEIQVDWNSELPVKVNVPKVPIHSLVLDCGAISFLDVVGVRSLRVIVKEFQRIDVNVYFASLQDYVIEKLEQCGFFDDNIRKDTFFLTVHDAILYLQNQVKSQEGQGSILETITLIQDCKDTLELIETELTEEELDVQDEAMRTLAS
UniProt O43513: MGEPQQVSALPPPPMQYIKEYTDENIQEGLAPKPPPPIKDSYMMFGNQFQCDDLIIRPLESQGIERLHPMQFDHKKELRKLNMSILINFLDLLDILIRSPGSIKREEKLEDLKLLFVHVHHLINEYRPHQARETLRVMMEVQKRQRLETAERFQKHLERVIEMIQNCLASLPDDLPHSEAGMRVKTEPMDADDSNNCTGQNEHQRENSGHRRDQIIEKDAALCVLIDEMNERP
UniProt O60825: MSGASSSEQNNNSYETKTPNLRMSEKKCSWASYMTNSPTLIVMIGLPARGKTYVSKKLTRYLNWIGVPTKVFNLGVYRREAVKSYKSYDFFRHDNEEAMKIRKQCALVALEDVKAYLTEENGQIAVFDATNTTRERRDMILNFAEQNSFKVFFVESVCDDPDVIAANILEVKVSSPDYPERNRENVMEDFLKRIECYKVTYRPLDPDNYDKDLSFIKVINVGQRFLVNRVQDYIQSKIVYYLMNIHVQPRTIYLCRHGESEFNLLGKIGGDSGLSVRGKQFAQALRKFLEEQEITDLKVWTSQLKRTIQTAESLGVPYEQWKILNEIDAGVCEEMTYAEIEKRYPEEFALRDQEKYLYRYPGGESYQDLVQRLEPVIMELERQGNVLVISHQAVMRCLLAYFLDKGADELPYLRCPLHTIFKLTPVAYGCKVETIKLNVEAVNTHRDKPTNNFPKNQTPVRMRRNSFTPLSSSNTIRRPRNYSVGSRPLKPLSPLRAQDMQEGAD
UniProt O43390: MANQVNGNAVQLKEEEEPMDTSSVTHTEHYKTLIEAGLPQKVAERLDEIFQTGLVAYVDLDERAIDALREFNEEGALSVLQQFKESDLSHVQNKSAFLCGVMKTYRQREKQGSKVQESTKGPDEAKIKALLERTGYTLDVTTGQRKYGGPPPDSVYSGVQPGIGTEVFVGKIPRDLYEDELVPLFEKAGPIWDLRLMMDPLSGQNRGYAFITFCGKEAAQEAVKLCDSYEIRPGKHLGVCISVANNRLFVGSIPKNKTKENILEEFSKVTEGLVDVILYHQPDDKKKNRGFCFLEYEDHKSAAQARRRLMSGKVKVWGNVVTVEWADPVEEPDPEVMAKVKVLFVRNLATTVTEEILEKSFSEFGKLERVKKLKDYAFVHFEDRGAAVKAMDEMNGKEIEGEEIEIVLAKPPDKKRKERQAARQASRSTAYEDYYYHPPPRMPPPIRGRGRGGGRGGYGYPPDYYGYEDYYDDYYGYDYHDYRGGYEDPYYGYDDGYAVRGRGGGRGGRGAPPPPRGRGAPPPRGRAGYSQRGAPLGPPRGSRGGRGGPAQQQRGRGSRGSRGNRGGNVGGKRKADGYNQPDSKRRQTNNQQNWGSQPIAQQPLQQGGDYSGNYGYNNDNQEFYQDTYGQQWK
UniProt O60832: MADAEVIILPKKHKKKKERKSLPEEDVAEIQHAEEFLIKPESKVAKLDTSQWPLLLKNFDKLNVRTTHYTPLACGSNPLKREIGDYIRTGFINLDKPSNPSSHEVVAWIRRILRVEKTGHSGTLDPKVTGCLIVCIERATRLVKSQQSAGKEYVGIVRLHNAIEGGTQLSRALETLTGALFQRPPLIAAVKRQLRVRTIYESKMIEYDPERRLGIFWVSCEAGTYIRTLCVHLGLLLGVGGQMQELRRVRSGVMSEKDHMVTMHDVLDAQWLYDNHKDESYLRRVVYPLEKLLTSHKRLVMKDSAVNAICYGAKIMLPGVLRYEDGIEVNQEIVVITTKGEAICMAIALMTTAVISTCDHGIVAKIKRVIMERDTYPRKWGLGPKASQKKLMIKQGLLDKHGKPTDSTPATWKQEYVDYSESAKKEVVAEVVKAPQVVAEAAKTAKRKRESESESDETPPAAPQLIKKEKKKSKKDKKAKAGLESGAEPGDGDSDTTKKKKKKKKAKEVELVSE
UniProt O15550, whole entry: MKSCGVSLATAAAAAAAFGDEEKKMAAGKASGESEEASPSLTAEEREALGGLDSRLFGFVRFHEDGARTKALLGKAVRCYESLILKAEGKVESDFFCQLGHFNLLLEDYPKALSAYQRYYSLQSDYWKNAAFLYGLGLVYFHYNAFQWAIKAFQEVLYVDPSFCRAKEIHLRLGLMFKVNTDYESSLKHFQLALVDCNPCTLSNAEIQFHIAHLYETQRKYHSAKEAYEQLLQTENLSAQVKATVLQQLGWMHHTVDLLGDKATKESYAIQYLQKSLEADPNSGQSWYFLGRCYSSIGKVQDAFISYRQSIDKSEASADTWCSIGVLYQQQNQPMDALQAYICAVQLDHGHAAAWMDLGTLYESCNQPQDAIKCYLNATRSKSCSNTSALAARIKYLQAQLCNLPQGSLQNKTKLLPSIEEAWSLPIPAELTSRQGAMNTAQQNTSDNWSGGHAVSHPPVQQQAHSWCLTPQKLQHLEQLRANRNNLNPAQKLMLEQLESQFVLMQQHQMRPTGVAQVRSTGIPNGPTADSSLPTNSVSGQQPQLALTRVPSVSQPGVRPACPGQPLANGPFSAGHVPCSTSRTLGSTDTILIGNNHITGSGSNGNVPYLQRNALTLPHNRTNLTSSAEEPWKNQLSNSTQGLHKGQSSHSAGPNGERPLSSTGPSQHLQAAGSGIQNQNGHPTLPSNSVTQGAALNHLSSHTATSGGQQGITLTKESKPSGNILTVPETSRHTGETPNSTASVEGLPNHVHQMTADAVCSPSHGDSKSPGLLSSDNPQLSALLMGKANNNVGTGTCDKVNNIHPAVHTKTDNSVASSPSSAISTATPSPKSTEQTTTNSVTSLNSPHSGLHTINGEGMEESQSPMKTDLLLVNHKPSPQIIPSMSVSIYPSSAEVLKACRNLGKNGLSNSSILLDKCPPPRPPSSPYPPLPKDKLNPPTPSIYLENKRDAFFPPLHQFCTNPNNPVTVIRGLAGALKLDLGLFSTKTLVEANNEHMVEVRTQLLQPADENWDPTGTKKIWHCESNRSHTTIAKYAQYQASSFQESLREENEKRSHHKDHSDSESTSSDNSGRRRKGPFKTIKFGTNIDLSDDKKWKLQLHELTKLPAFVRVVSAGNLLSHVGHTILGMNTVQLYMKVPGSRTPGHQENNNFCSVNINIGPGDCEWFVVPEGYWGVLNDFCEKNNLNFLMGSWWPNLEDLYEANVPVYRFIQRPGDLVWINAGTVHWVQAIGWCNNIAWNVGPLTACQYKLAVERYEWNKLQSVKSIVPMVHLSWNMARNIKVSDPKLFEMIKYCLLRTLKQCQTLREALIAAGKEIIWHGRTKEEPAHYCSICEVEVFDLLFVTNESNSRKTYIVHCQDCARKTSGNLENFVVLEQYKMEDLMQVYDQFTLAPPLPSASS
UniProt O43524: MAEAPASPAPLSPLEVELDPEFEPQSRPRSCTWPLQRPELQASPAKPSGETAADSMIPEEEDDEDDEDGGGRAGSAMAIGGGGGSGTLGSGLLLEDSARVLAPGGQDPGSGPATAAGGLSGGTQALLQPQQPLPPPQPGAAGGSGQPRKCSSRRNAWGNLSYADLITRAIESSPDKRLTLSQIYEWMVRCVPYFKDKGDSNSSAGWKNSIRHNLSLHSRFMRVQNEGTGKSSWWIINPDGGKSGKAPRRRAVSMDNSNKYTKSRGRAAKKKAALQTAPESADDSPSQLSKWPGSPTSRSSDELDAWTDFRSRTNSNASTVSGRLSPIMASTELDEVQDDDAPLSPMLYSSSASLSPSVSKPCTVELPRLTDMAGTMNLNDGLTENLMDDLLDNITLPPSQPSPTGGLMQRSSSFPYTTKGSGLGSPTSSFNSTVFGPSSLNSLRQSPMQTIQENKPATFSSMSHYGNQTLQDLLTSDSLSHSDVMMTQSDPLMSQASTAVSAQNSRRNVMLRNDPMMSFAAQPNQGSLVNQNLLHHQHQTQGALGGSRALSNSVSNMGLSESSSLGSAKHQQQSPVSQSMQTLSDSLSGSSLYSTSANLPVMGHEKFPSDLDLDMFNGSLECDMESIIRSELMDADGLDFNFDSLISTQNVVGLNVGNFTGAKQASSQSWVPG
UniProt O43837: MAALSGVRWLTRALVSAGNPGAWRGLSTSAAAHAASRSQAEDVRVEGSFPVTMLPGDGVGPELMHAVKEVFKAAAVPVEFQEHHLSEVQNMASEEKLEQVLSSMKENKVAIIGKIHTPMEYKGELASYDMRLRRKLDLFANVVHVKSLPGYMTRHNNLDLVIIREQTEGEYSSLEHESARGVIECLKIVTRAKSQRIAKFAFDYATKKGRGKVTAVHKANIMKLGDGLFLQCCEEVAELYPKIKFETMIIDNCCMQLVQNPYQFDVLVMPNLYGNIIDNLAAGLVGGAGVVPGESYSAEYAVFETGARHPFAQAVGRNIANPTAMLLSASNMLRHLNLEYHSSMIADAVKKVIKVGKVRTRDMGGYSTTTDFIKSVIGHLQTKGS

Compound in the assay: Cc1nc(Nc2ncc(C(=O)Nc3c(C)cccc3Cl)s2)cc(N2CCN(CCO)CC2)n1 [dasatinib]
Kind of assay: log2 fold change of tryptic peptide abundance, ligand vs vehicle (limited proteolysis) (log2 ratio); higher = more trypsin-susceptible (destabilized). To be noted: ligand concentration: 5 uM; sample: K562 cleared lysate.
Regarding “UniProt O43511 (peptide sequence: KTLRESLAK, peptide start residue: 44)”, the log2 fold change was found to be 0.418.

As to “MED7 (peptide sequence: VMMEVQKR, peptide start residue: 137) (UniProt O43513)”, the log2 fold change is -0.189.

Regarding “PFKFB2 (peptide sequence: YLNWIGVPTK, peptide start residue: 61) (UniProt O60825)”, the log2 fold change is -0.153.

For the target “HNRNPR (peptide sequence: SFSEFGKLER, peptide start residue: 360) (UniProt O43390)”, the log2 fold change was -0.102.

Consider “DKC1 (peptide sequence: ADAEVIILPK, peptide start residue: 2) (UniProt O60832)”, for which the log2 fold change was -0.317.

In the case of “KDM6A (peptide sequence: SHHKDHSDSESTSSDNSGRR, peptide start residue: 1055) (UniProt O15550)”, the log2 fold change amounted to 1.25.

Regarding “FOXO3 (peptide sequence: AIESSPDKR, peptide start residue: 169) (UniProt O43524)”, the log2 fold change is -0.139.

On to “IDH3B (peptide sequence: FAFDYATKK, peptide start residue: 200) (UniProt O43837)”, for which the log2 fold change was found to be 0.127.

Source of the values: the supplement of paper PMC12819154, “High-throughput peptide-centric local stability assay extends protein–ligand identification to membrane proteins, tissues and bacteria” (Nature Structural & Molecular Biology, 2025).
